Test results from patent publication US8153376.
No constants are given. Whether binding was seen depends on the method and setting. For some of these results: In cells and extracts the contact can be indirect. Some entries that bind do so weakly or less than the wild type. Each block holds one binder with its values, some of them ahead of it.

Protein sequences, listed by entry. Tags and fused reporters are not part of them. Residues count along the entry.
UniProt Q9Z1Y3, residues 160-906: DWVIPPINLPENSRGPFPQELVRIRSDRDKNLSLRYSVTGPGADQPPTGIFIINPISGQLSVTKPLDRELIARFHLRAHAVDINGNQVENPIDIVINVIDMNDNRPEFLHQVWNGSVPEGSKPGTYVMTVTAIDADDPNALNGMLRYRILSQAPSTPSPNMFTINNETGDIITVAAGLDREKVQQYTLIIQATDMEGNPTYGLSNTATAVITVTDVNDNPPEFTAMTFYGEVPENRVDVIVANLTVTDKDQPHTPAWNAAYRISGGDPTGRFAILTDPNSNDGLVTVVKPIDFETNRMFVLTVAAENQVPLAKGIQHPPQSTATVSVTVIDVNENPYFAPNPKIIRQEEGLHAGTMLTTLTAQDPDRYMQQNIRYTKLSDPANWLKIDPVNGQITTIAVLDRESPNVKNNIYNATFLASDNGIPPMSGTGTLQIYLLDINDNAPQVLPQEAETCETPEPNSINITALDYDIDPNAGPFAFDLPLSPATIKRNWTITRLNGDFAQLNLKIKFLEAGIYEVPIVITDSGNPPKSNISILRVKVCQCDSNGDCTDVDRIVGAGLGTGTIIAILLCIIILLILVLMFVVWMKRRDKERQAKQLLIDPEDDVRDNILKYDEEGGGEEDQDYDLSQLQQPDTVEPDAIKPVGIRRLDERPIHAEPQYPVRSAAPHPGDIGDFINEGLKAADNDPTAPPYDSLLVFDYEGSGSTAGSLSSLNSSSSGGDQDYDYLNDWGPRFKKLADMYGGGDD
UniProt P19022, residues 160-906: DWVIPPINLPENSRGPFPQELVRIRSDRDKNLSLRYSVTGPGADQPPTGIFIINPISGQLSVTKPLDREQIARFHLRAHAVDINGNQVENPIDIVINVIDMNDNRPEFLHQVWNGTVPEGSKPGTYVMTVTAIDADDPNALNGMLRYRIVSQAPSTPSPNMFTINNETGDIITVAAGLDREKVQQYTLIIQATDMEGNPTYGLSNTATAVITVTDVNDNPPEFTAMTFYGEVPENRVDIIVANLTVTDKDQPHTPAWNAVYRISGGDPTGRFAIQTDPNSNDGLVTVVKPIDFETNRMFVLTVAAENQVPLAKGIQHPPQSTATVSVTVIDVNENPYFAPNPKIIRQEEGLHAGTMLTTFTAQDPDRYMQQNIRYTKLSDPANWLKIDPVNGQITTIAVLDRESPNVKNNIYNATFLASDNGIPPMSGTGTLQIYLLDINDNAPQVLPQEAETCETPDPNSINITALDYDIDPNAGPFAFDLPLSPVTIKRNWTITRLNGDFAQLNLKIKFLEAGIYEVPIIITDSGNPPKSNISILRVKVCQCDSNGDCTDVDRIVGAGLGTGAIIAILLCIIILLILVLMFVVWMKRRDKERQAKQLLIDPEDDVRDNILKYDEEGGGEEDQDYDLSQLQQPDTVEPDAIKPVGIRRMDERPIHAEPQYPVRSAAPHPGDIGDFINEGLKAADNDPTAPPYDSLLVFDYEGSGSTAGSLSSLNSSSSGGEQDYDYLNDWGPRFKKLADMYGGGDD

Legend:
[1] = biological target: N-cadherin, rat, endogenous in neonatal rat cardiac myocytes (rat) (UniProt Q9Z1Y3); test: co-immunoprecipitation, summary sentence of Example 1
[2] = biological target: N-cadherin, rat, endogenous in neonatal rat cardiac myocytes (rat) (UniProt Q9Z1Y3); test: co-immunoprecipitation (IP LIMP-2, immunoblot cadherin), FIG. 7a
[3] = biological target: N-cadherin, rat, endogenous in neonatal rat cardiac myocytes (rat) (UniProt Q9Z1Y3); test: co-immunoprecipitation from neonatal rat cardiac myocyte protein (IP anti-LIMP-2, blot cadherin)
[4] = biological target: cadherin, human, in myocardial tissue sections (human) (UniProt P19022); test: double immunofluorescence and confocal microscopy of human myocardium (co-localisation at the intercalated disc)

binding [1]: binds
binding [2]: binds
binding [3]: binds
B1: lysosomal integral membrane protein-2 (LIMP-2), rat, endogenous in neonatal rat cardiac myocytes (protein, UniProt P27615 2-478, looked up)
chain: ARCCFYTAGTLSLLLLVTSVTLLVARVFQKAVDQTIEKNMVLQNGTKVFDSWEKPPLPVYIQFYFFNVTNPEEILQGEIPLLEEVGPYTYRELRNKANVQFGENGTTISAVTNKAYIFERNQSVGDPTVDLIRTINIPLLTVVEMAQQPFLREIIEAMLKAYQQTLFVTHTVHELLWGYKDEVLSLVHIFRPDVSPNFGLFYERNGTNDGEYVFLTGEDNYLNFTKIVEWNGKTSLDWWTTDTCNMINGTDGDSFHPLISKDETLYIFPSDFCRSVYITFSSFENVEGLPAFRYKVPAEILANSSENAGFCIPEGNCMDAGVLNVSICKNGAPIIMSFPHFYQADEKFVSAIKGMRPNKEEHESFVDINPLTGIILRGAKRFQINTYVKKLDDFVETGNIRTMVFPVMYLNESVLIDKETASQLKSVINTTLIVTNIPYIIMALGVFFGLIFTWLACRGQGSTDEGTADERAPLIRT

binding [4]: binds
B2: LIMP-2, human, in myocardial tissue sections (protein, UniProt Q14108 1-478, looked up)
chain: MGRCCFYTAGTLSLLLLVTSVTLLVARVFQKAVDQSIEKKIVLRNGTEAFDSWEKPPLPVYTQFYFFNVTNPEEILRGETPRVEEVGPYTYRELRNKANIQFGDNGTTISAVSNKAYVFERDQSVGDPKIDLIRTLNIPVLTVIEWSQVHFLREIIEAMLKAYQQKLFVTHTVDELLWGYKDEILSLIHVFRPDISPYFGLFYEKNGTNDGDYVFLTGEDSYLNFTKIVEWNGKTSLDWWITDKCNMINGTDGDSFHPLITKDEVLYVFPSDFCRSVYITFSDYESVQGLPAFRYKVPAEILANTSDNAGFCIPEGNCLGSGVLNVSICKNGAPIIMSFPHFYQADERFVSAIEGMHPNQEDHETFVDINPLTGIILKAAKRFQINIYVKKLDDFVETGDIRTMVFPVMYLNESVHIDKETASRLKSMINTTLIITNIPYIIMALGVFFGLVFTWLACKGQGSMDEGTADERAPLIRT
